Article PMC4667630, “Localized reconstruction of subunits from electron cryomicroscopy images of macromolecular complexes” (Nature Communications, 2015)
No constants are given. Whether binding was seen depends on the method and setting. Some entries that bind do so weakly or less than the wild type.

Sequences of proteins named here, by UniProt entry; tags and fusion partners are left off. A change or cut given only in a name is not applied to a line headed by its entry.
UniProt P55735: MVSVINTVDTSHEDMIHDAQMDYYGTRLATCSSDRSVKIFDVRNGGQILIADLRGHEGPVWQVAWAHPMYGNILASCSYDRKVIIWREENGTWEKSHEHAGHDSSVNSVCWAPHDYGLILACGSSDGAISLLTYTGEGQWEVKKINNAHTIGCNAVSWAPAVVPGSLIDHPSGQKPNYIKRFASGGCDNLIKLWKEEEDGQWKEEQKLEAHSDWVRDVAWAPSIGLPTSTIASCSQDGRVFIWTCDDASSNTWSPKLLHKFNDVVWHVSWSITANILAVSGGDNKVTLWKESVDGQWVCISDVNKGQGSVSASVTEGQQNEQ

Biological target: Sec13/31 dimer of the COPII cage (UniProt P55735)
Assay: cryo-EM structure; native (unfixed) COPII cages, previously published micrographs (ref. 13); octahedral reconstruction, then localized reconstruction of the Sec13/31 vertices

binding: binds
Substance: Sec13/31 dimer of the COPII cage (from UniProt P55735 1-322; O94979 1-1220) (complex)
